Measurements: PMC7821752
No constants are given. Whether binding was seen depends on the method and setting. In cells and extracts the contact can be indirect. Some entries that bind do so weakly or less than the wild type. Sequences can lack the tags named with a protein.

The chains behind the UniProt entries cited, without tags or fusion partners.
UniProt Q07174: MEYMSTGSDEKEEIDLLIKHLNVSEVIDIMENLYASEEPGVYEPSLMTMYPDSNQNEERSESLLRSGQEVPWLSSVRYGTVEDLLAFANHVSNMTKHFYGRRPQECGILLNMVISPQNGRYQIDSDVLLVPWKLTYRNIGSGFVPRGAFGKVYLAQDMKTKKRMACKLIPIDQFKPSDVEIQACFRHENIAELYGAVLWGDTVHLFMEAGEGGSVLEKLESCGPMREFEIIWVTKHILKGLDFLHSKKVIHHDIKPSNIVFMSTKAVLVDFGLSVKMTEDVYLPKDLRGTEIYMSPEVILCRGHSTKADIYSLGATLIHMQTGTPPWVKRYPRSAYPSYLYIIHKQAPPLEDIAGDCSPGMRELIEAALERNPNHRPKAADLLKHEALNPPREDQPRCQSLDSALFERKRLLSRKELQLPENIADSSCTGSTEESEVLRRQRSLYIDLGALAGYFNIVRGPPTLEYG

Target: Tumor progression locus 2 (Myc-TPL2) (UniProt Q07174)
Assay: co-IP

binding: binds
B1: Interferon regulatory factor 3 (HA-IRF3) (protein, UniProt Q14653 1-427)
chain: MGTPKPRILPWLVSQLDLGQLEGVAWVNKSRTRFRIPWKHGLRQDAQQEDFGIFQAWAEATGAYVPGRDKPDLPTWKRNFRSALNRKEGLRLAEDRSKDPHDPHKIYEFVNSGVGDFSQPDTSPDTNGGGSTSDTQEDILDELLGNMVLAPLPDPGPPSLAVAPEPCPQPLRSPSLDNPTPFPNLGPSENPLKRLLVPGEEWEFEVTAFYRGRQVFQQTISCPEGLRLVGSEVGDRTLPGWPVTLPDPGMSLTDRGVMSYVRHVLSCLGGGLALWRAGQWLWAQRLGHCHTYWAVSEELLPNSGHGPDGEVPKDKEGGVFDLGPFIVDLITFTEGSGRSPRYALWFCVGESWPQDQPWTKRLVMVKVVPTCLRALVEMARVGGASSLENTVDLHISNSHPLSLTSDQYKAYLQDLVEGMDFQGPGES
